Results reported in patent US20060240015A1.
Where a chain is given by its changes, count along the chain named. These are yes or no findings as the source states them, for the method shown. Some results given as binding are weak or reduced against the parent protein; the word gives no strength. One block for each binder: values may come before it.

Protein sequences, listed by entry. Tags and fused reporters are not part of them. Residues count along the entry.
UniProt P05019, residues 49-118: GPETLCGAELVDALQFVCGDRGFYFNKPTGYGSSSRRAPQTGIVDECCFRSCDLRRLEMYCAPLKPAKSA
UniProt P01344, residues 25-91: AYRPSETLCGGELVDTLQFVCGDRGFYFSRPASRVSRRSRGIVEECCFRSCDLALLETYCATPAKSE

Legend:
[1] = molecular target: human insulin-like growth factor-I (human) (UniProt P05019); assay: SPR (Biacore 2000)
[2] = molecular target: human insulin-like growth factor-II (human) (UniProt P01344); assay: SPR (Biacore 2000)
[3] = molecular target: human insulin-like growth factor-II (human) (UniProt P01344); assay: summary of Biacore
[4] = molecular target: human insulin-like growth factor-I (human) (UniProt P05019); assay: binding ELISA on coated mBSA-hIGF-I
[5] = molecular target: human insulin-like growth factor-I (human) (UniProt P05019); assay: summary of binding ELISA and Biacore

binding [1]: binds
binding [2]: binds
binding [3]: binds
binding [4]: binds
binding [5]: binds
B1: anti-hIGF CDR-grafted antibody QGAR/PLDFT (antibody, human IgG1, V domains shown)
VH: EVQLVESGGGVVQPGRSLRLSCAASGFTFSNYYMTWVRQAPTKGLEWVAYISSGGGSTYYRDSVKGRFTISRDNSKNTLYLQMNSLRAEDTAVYYCTTEDYGYWFAYWGQGTLVTVSS
VL: DIVMTQSPDSLAVSLGERATINCRASSSVSYMHWYQQKPGQSPKPLIYGTSKLASGVPDRFSGSGSGTSYSLTISSLQAEDVAVYYCLQRSSYPPTFGQGTKVEIK

binding [1]: binds
binding [2]: binds
binding [3]: binds
binding [4]: binds
binding [5]: binds
B2: anti-hIGF CDR-grafted antibody QGAR/PLLDFT (antibody, human IgG1, V domains shown)
VH: B1 VH
VL: B1 VL with L46W
